From patent publication US20190330354A1 (MITSUBISHI TANABE PHARMA, published 2019)
Results are given in words; binding and its absence hold for the method and conditions named. Some results given as binding are weak or reduced against the parent protein; the word gives no strength.

Amino acid sequences for entries named in this document (tags omitted). A change or cut given only in a name is not applied to a line headed by its entry.
UniProt P08581: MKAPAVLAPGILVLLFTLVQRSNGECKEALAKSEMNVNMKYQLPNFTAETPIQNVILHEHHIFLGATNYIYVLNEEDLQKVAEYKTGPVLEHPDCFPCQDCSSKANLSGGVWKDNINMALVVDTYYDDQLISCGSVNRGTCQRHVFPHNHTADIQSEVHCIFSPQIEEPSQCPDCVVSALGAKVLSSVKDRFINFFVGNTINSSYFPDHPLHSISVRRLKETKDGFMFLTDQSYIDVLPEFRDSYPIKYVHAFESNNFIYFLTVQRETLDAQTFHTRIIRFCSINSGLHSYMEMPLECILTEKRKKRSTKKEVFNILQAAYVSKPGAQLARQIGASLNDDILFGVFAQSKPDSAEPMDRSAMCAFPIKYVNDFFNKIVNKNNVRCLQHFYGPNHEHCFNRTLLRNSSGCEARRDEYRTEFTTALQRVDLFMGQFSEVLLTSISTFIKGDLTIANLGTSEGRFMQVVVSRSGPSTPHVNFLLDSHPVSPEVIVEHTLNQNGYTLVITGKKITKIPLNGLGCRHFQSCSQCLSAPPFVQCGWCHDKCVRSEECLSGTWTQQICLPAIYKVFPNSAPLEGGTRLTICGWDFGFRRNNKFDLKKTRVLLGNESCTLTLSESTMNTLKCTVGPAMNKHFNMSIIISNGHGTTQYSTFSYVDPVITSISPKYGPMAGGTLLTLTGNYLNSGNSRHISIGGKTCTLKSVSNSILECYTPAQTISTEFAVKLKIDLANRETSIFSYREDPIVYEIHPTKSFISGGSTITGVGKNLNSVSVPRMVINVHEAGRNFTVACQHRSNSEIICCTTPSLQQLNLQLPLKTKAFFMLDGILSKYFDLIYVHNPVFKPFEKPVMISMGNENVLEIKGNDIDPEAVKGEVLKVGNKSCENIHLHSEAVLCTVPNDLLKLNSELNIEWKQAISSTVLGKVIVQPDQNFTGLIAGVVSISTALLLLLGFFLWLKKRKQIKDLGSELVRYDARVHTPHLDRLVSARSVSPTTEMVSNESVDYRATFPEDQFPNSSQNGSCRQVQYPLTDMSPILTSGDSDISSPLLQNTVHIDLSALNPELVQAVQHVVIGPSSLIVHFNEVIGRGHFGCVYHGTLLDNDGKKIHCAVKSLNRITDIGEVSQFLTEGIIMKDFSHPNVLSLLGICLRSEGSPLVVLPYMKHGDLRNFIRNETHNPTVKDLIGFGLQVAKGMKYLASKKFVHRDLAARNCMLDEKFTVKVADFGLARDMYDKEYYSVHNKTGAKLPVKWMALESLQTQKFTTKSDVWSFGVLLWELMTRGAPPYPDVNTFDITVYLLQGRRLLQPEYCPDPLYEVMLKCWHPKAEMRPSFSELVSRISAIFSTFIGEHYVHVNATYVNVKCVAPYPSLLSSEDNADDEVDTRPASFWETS

B1: F6AP8E2 (antibody, V domains shown)
VH: EVQLQQSGAELVRPGALVKLSCKASGFNINDYFMHWVKQRPEQGLEWIGWIDPENGNTIYDPKFQGKASITADTSSNTAYLQLSSLTSEDTAVYYCARGGNYLRESYYYAMDYWGQGTSVTVSS
VL: DIVMTQSPKSMSMSVGERVTLSCKASENVGTYVSWYQQKPDQSPKLLIYGASNRYTGVPDRFTGSGSATDFTLTISSVQAEDLADYHCGQSYSYPLTFGAGTKLELKR
notes: Mouse monoclonal antibody
B2: F6B1P3D12 (antibody, V domains shown)
VH: QVQLQQSGAELAKPGASVKMSCRASGYTFTSYWMHWVKQRPGQGLDWIGYIKPSTDNTEYNQKFKDKATLTADKSSSTAYMQLSSLTSEDSAVYYCARSYGNYPLMDYWGQGTSVTVSS
VL: QIVLTQSPAIMSASPGEKVTLTCSASSSVTSNYLYWYQQKPGSSPKLWIYSTSNLASGVPARFSGSGSGTSYSLTISSMEAEDAASYFCHQWSSYPPTFGSGTKLEIKR
notes: Mouse monoclonal antibody from a hybridoma; also called Mouse P3D12; P3D12(mouse)
B3: F6B1P1E2 (antibody, V domains shown)
VH: QVQLQQSGAELAKPGASVKMSCKASGYTFTSYWMHWVKQRPGQGLEWIGYINPSTDYTEYNQKFKDKATLTADKSSTTAYMQLSSLTSEDSAVYYCVRSYGNYPLMDYWGQGTSVTVSS
VL: QIVLTQSPAIMSASPGEKVTLTCSASSSVSSNYLYWYHQKPGSSPKLWIYSTSNLASGVPVRFSGSGSGTSYSLTISSMEAEDAASYFCHQWSSYPPTFGSGTKLEIKR
notes: Mouse monoclonal antibody
B4: F6BP2D4 (antibody, V domains shown)
VH: QVQLQQSGAELAKPGASVKMSCKASGYTFTSYWMHWVKQRPGQGLEWIGYINPSTDYIEYNQKFKDKATLTAGKSSSTAYMQLSSLTSEDSAVYYCARSYGNFPLMDYWGQGTSVTVSS
VL: QIVLTQSPAIMSASPGEKVTLTCSASSSVSSNYLYWYQQKPGSSPKLWIYSTSNLASGVPVRFSGSGSGTSYSLTISSMEAEDAASYFCHQWSSYPPTFGSGTKLEIKR
notes: Mouse monoclonal antibody

How the values were obtained:
[1] = target: monkey cMET (Cynomolgus Macaque) (Cynomolgus macaque (Macaca fascicularis)); assay: ELISA, antibody titrated on cMet of the named species, OD 450 nm
human cMET = target: T1, human cMET (human, UniProt P08581 25-932, limits assumed); assay: as above
T1 construct: also called hMET

[2] = target: monkey cMET (Cynomolgus Macaque) (Cynomolgus macaque (Macaca fascicularis)); assay: ELISA, species cross-reactivity (NHP)

Binder | binding [1] | binding (human cMET) | binding [2]
B1 | binds | binds | binds
B2 | binds | – | binds
B3 | binds | – | binds
B4 | binds | – | binds
